Some of the results follow.
Columns and labels:
Test in all cases: log2 fold change, soluble protein after heating vs DMSO (PISA); higher = thermal stabilisation; K562 cells, 10 uM, 30 min; active = over 0.2 and 3.5 SD of the protein, either way, in both replicates (recomputed)
bafetinib = compound: Cc1ccc(NC(=O)c2ccc(CN3CC[C@H](N(C)C)C3)c(C(F)(F)F)c2)cc1Nc1nccc(-c2cncnc2)n1 [bafetinib]
In short: (§1)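 Soluble protein was quantified by TMTpro 16plex LC-MS/MS after channel sums were equalised. It was obtained as the supernatant after 21,000xg for 90 min from pooled aliquots of K562 cells (2×10^6 cells/mL, 10 μM compound, 30 min) heated for 3 min across 48°C-58°C and extracted in PBS with 0.5% NP-40 at 4°C. Thermal stability values are relative to control samples and come from duplicates. They are given as log2 fold changes.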

Sequences of proteins named here, by UniProt entry; tags and fusion partners are left off. A change or cut given only in a name is not applied to a line headed by its entry.
UniProt Q06413, whole entry, looked up: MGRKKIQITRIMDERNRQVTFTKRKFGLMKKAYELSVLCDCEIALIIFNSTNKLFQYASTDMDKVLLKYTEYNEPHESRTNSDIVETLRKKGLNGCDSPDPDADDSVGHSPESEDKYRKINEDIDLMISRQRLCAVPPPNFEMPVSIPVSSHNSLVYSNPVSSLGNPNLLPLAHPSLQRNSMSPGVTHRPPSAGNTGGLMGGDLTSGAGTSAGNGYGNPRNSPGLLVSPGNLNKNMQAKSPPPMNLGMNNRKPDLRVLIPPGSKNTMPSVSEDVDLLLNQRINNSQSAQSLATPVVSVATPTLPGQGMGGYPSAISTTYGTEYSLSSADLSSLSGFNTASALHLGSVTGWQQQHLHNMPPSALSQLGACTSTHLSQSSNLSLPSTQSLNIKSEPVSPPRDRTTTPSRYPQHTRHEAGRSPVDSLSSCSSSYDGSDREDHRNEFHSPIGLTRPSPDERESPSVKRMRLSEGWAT
UniProt Q86W50: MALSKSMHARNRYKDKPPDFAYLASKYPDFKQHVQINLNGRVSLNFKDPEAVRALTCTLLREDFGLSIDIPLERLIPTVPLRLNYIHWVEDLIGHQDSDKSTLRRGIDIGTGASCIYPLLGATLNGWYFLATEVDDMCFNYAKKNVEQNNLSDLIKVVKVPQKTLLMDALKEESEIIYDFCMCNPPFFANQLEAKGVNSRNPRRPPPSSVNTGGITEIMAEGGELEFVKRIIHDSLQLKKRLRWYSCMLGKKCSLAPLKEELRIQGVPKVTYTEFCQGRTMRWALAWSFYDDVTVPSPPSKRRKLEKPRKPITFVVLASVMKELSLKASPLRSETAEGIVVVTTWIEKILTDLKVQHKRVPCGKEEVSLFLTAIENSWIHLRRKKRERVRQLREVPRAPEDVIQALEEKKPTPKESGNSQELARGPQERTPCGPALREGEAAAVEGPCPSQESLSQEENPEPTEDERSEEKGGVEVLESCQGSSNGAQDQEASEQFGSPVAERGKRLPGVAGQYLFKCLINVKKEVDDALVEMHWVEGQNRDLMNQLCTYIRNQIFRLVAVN
UniProt Q99735: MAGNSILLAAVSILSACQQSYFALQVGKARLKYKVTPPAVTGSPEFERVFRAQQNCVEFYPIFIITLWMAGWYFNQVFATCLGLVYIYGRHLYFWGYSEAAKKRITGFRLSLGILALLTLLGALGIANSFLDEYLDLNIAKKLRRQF
UniProt Q8IVS2: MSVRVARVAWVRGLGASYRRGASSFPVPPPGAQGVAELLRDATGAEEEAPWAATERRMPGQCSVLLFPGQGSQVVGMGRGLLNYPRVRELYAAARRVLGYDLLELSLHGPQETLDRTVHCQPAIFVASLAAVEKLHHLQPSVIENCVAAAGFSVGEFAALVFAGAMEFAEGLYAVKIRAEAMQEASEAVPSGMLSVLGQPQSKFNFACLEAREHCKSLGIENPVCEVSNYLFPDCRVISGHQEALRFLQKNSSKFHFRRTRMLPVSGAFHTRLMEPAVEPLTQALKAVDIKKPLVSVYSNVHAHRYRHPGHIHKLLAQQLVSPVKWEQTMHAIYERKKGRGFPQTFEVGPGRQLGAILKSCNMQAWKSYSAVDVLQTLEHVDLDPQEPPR
UniProt Q8NI22: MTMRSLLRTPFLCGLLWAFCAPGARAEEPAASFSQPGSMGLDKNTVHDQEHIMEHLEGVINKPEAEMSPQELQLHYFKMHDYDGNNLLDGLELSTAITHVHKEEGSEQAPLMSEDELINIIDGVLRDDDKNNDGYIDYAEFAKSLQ
UniProt Q09328: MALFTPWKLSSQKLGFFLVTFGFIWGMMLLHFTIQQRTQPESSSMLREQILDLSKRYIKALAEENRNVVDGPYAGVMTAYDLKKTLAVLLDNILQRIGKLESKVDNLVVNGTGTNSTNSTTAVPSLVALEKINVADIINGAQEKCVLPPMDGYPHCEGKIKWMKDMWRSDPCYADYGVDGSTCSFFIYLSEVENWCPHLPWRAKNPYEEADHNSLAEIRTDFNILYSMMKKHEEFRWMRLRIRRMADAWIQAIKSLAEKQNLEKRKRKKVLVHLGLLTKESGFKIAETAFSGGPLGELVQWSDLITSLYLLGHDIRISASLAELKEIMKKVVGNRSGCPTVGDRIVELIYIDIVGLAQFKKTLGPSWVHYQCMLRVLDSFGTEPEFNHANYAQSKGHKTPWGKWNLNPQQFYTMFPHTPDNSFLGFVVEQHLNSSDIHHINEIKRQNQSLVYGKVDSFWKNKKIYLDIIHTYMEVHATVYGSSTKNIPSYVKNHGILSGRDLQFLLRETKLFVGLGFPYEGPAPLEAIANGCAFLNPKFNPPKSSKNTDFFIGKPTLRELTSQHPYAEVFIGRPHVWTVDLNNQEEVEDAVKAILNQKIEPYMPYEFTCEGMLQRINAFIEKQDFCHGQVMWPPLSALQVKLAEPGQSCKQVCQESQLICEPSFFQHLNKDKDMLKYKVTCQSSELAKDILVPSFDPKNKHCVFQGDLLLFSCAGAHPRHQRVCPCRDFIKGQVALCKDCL
UniProt Q9NR56: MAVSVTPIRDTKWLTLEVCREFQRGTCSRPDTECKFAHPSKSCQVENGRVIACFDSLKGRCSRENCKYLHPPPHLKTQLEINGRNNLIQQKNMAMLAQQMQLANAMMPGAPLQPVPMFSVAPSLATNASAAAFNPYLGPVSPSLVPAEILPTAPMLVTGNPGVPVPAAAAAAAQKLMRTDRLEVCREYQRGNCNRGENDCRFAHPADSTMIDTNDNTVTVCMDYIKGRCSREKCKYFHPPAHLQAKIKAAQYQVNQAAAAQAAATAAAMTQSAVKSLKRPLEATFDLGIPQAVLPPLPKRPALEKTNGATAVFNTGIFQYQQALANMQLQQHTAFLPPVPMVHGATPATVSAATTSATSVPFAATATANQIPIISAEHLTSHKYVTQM
UniProt P26572: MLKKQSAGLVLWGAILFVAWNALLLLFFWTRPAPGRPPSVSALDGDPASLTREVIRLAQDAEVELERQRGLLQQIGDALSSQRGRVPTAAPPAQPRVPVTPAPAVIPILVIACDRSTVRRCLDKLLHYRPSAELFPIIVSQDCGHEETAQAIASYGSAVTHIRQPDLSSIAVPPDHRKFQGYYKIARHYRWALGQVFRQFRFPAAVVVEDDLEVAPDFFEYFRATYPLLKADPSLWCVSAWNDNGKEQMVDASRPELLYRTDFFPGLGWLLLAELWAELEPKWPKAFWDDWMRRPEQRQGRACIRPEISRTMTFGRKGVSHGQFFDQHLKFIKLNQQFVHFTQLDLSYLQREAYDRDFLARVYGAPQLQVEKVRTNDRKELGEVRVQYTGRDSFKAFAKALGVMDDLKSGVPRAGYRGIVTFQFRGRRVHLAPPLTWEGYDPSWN
UniProt P50579: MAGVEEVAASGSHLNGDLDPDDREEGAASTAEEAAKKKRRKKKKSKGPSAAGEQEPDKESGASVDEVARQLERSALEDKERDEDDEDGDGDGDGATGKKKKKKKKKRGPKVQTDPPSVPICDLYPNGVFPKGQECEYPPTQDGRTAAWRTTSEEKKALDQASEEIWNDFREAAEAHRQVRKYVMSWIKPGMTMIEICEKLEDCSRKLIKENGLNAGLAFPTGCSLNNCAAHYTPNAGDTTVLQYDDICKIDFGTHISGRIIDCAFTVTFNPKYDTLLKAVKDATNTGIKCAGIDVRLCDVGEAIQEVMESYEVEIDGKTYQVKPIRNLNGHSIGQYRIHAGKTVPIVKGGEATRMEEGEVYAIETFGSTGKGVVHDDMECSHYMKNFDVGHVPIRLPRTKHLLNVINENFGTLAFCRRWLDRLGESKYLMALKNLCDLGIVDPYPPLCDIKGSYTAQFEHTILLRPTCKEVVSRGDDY
UniProt Q96RN5: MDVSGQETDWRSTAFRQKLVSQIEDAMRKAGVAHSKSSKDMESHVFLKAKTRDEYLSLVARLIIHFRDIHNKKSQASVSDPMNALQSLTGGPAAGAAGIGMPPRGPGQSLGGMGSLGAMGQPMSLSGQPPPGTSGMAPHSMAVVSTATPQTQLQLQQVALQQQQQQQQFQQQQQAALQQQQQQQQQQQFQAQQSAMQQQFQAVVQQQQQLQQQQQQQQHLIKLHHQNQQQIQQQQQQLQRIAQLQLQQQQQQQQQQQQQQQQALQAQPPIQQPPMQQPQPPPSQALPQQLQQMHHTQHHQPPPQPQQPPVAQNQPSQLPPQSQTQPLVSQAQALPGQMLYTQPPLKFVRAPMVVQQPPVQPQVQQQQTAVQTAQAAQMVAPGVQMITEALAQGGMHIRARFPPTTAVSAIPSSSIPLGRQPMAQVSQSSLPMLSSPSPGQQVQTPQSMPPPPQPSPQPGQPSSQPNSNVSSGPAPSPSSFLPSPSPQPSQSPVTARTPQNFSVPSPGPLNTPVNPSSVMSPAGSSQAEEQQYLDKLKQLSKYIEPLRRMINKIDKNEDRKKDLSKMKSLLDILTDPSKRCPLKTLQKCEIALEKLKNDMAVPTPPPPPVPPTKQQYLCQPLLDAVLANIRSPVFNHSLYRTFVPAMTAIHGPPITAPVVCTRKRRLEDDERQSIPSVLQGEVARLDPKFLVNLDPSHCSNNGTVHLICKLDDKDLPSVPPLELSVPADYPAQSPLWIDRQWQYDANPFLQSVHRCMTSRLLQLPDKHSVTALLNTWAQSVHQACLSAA
UniProt O95983: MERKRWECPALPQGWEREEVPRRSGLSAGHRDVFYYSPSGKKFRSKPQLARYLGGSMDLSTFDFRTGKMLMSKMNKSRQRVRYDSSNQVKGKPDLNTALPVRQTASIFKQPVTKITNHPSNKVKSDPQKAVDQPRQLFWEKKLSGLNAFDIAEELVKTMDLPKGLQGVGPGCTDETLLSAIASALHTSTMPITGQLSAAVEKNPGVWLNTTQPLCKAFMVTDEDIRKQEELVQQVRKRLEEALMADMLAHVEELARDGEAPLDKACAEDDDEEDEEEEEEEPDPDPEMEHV
UniProt P56270: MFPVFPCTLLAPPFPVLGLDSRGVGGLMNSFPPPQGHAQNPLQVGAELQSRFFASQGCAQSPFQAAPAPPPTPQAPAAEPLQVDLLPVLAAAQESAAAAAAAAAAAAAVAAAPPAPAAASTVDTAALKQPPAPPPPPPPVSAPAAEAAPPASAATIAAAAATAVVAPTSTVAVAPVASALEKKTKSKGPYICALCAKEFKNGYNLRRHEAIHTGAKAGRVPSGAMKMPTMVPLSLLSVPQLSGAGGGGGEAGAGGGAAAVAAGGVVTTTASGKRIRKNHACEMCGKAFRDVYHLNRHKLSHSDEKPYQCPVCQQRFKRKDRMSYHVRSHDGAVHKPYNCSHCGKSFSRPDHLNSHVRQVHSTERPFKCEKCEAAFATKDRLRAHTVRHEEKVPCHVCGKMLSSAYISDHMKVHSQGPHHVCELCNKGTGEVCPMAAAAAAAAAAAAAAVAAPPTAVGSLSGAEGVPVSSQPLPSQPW
UniProt Q6ZWT7: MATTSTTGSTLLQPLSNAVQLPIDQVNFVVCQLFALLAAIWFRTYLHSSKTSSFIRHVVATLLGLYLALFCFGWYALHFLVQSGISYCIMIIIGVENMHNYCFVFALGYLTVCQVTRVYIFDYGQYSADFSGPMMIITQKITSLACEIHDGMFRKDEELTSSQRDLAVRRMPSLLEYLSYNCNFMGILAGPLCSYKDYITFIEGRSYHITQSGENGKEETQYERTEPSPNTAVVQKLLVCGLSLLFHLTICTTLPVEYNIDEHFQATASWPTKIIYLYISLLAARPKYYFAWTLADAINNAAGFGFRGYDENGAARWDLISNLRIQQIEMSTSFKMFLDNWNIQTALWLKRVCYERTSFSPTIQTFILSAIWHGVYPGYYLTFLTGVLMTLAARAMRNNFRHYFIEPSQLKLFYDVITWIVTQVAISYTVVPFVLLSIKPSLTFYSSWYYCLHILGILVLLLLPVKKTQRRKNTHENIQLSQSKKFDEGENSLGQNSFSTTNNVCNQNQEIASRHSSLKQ
UniProt Q9H944: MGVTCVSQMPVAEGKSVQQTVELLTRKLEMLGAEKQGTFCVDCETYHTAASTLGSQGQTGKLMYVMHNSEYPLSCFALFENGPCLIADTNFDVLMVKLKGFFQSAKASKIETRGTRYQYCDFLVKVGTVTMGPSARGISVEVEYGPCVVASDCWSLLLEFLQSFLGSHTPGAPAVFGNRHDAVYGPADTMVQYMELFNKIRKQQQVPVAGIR
UniProt P55081: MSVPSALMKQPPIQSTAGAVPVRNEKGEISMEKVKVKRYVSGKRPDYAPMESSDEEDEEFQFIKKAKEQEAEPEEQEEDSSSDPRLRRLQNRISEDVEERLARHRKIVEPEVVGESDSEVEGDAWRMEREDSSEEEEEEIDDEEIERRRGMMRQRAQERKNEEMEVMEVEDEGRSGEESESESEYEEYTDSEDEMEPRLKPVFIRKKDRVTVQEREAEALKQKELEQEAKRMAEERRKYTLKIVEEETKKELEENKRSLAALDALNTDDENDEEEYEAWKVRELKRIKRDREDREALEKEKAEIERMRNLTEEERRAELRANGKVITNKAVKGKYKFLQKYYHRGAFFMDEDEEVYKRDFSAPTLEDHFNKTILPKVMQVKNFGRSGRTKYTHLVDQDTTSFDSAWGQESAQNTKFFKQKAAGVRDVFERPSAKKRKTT

[1] = compound: Cc1cccc(CC(=O)N2CCc3c2ccc(-c2cn(C)c4ncnc(N)c24)c3F)n1
In short: as §1

nilotinib = compound: Cc1cn(-c2cc(NC(=O)c3ccc(C)c(Nc4nccc(-c5cccnc5)n4)c3)cc(C(F)(F)F)c2)cn1 [nilotinib]
In short: as §1

[2] = compound: Cc1nc(Nc2n[nH]c3c2CN(C(=O)N[C@H](CN(C)C)c2ccccc2)C3(C)C)c2sccc2n1
In short: as §1

dasatinib = compound: Cc1nc(Nc2ncc(C(=O)Nc3c(C)cccc3Cl)s2)cc(N2CCN(CCO)CC2)n1 [dasatinib]
In short: as §1

[3] = compound: Cc1ncc(-c2ccnc(Nc3ccc(S(C)(=O)=O)cc3)n2)n1C(C)C
In short: as §1

[4] = compound: Cn1cc(-c2ccc3c(c2)CCN3C(=O)Cc2cccc(C(F)(F)F)c2)c2c(N)ncnc21
In short: as §1

[5] = compound: Cn1cc(-c2ccc3nnc(C(F)(F)c4ccc5ncccc5c4)n3n2)cn1
In short: as §1

tipifarnib = compound: Cn1cncc1[C@@](N)(c1ccc(Cl)cc1)c1ccc2c(c1)c(-c1cccc(Cl)c1)cc(=O)n2C [tipifarnib]
In short: as §1

mubritinib = compound: FC(F)(F)c1ccc(/C=C/c2nc(COc3ccc(CCCCn4ccnn4)cc3)co2)cc1 [mubritinib]
In short: as §1

[6] = compound: NC(=O)Nc1cc(-c2cccc(F)c2)sc1C(=O)N[C@H]1CCCNC1
In short: as §1

[7] = compound: NC(=O)c1cnc(N[C@@H]2CCCC[C@@H]2N)nc1Nc1cccc(-n2nccn2)c1
In short: as §1

[8] = compound: NC1(c2ccc(-c3nc4ccn5c(=O)[nH]nc5c4cc3-c3ccccc3)cc2)CCC1
In short: as §1

[9] = compound: NCC(=O)Nc1ccc(-n2nc(C(F)(F)F)cc2-c2ccc3c(ccc4ccccc43)c2)cc1
In short: as §1

entinostat = compound: Nc1ccccc1NC(=O)c1ccc(CNC(=O)OCc2cccnc2)cc1 [entinostat]
In short: as §1

vorinostat = compound: O=C(CCCCCCC(=O)Nc1ccccc1)NO [vorinostat]
In short: as §1

citarinostat = compound: O=C(CCCCCCNC(=O)c1cnc(N(c2ccccc2)c2ccccc2Cl)nc1)NO [citarinostat]
In short: as §1

silmitasertib = compound: O=C(O)c1ccc2c(c1)nc(Nc1cccc(Cl)c1)c1ccncc12 [silmitasertib]
In short: as §1

[10] = compound: O=C1NC(=O)C(c2cnc3ccccn23)=C1c1cn2c3c(cc(F)cc13)CN(C(=O)N1CCCCC1)CC2
In short: as §1

[11] = compound: c1cc(OCCN2CCCCC2)cc(-c2n[nH]c3ccc(-c4nnc[nH]4)cc23)c1
In short: as §1

Measured: log2 fold change

MEF2C isoform 5 (UniProt Q06413)
inactive: bafetinib 0.01 | [1] 0.085 | nilotinib 0.221 | [2] -0.065 | dasatinib 0.092 | [3] 0.013 | [4] -0.083 | [5] -0.165 | tipifarnib 0.167 | mubritinib 0.023 | [6] -0.03 | [7] 0 | [8] 0.013 | [9] -0.005 | entinostat -0.042 | vorinostat -0.009 | citarinostat 0.033 | silmitasertib 0.009 | [10] -0.108 | [11] -0.019

METTL16 (UniProt Q86W50)
inactive: bafetinib -0.043 | [1] -0.016 | nilotinib -0.07 | [2] -0.007 | dasatinib -0.043 | [3] -0.074 | [4] -0.021 | [5] -0.036 | tipifarnib 0.007 | mubritinib -0.012 | [6] 0.021 | [7] -0.046 | [8] -0.057 | [9] 0.021 | entinostat -0.004 | vorinostat 0.085 | citarinostat 0.056 | silmitasertib 0.043 | [10] -0.007 | [11] -0.073

MGST2 (UniProt Q99735)
inactive: bafetinib -0.031 | [1] -0.065 | nilotinib 0.018 | [2] -0.006 | dasatinib -0.137 | [3] 0.001 | [4] 0.188 | [5] 0.084 | tipifarnib -0.02 | mubritinib 0.021 | [6] -0.067 | [7] 0.003 | [8] 0.06 | [9] 0.061 | entinostat -0.047 | vorinostat -0.092 | citarinostat 0.006 | silmitasertib 0.023 | [10] -0.285 | [11] 0.054

MCAT (UniProt Q8IVS2)
inactive: bafetinib 0.032 | [1] 0.012 | nilotinib -0.025 | [2] 0.01 | dasatinib 0.029 | [3] -0.009 | [4] -0.044 | [5] -0.024 | tipifarnib -0.014 | mubritinib 0.014 | [6] 0.046 | [7] 0.068 | [8] 0.137 | [9] 0.056 | entinostat -0.047 | vorinostat 0.005 | citarinostat -0.035 | silmitasertib 0.025 | [10] 0.18 | [11] -0.044

MCFD2 (UniProt Q8NI22)
inactive: bafetinib -0.119 | [1] -0.14 | nilotinib 0.09 | [2] 0 | dasatinib -0.005 | [3] -0.042 | [4] 0.032 | [5] 0.09 | tipifarnib 0.414 | mubritinib -0.003 | [6] 0.075 | [7] 0.359 | [8] 0.043 | [9] 0.178 | entinostat 0.044 | vorinostat -0.114 | citarinostat -0.008 | silmitasertib 0.008 | [10] -0.197 | [11] -0.035

MGAT5 (UniProt Q09328)
inactive: bafetinib -0.012 | [1] -0.036 | nilotinib 0.091 | [2] -0.067 | dasatinib 0.043 | [3] 0.02 | [4] 0.008 | [5] 0.185 | tipifarnib -0.007 | mubritinib 0.025 | [6] 0.005 | [7] 0.052 | [8] -0.006 | [9] 0.096 | entinostat 0.019 | vorinostat -0.065 | citarinostat 0.015 | silmitasertib 0.024 | [10] 0.03 | [11] 0.005

MBNL1 (UniProt Q9NR56)
inactive: bafetinib -0.081 | [1] -0.011 | nilotinib -0.004 | [2] -0.033 | dasatinib 0.096 | [3] 0.01 | [4] -0.034 | [5] 0.009 | tipifarnib 0.058 | mubritinib -0.001 | [6] -0.017 | [7] 0.003 | [8] 0.01 | [9] 0 | entinostat 0.01 | vorinostat -0.044 | citarinostat 0.001 | silmitasertib 0.05 | [10] -0.011 | [11] 0

MGAT1 (UniProt P26572)
inactive: bafetinib 0.039 | [1] 0.001 | nilotinib -0.002 | [2] 0.021 | dasatinib -0.008 | [3] 0.06 | [4] -0.063 | [5] -0.06 | tipifarnib 0.042 | mubritinib 0.001 | [6] -0.005 | [7] 0.036 | [8] -0.01 | [9] -0.051 | entinostat -0.001 | vorinostat 0.068 | citarinostat -0.028 | silmitasertib -0.012 | [10] 0.019 | [11] -0.065

Reprinted from the listing (2 entries):
MCFD2 (UniProt Q8NI22)
inactive: bafetinib -0.119 | [1] -0.14 | nilotinib 0.09 | [2] 0 | dasatinib -0.005 | [3] -0.042 | [4] 0.032 | [5] 0.09 | tipifarnib 0.414 | mubritinib -0.003 | [6] 0.075 | [7] 0.359 | [8] 0.043 | [9] 0.178 | entinostat 0.044 | vorinostat -0.114 | citarinostat -0.008 | silmitasertib 0.008 | [10] -0.197 | [11] -0.035

MGAT5 (UniProt Q09328)
inactive: bafetinib -0.012 | [1] -0.036 | nilotinib 0.091 | [2] -0.067 | dasatinib 0.043 | [3] 0.02 | [4] 0.008 | [5] 0.185 | tipifarnib -0.007 | mubritinib 0.025 | [6] 0.005 | [7] 0.052 | [8] -0.006 | [9] 0.096 | entinostat 0.019 | vorinostat -0.065 | citarinostat 0.015 | silmitasertib 0.024 | [10] 0.03 | [11] 0.005

More results follow.

METAP2 (UniProt P50579)
inactive: bafetinib -0.087 | [1] 0.004 | nilotinib -0.006 | [2] 0 | dasatinib 0.073 | [3] -0.019 | [4] 0.025 | [5] -0.086 | tipifarnib 0.048 | mubritinib 0.059 | [6] -0.157 | [7] 0.01 | [8] 0.075 | [9] 0.027 | entinostat -0.081 | vorinostat 0.071 | citarinostat -0.012 | silmitasertib -0.027 | [10] -0.004 | [11] -0.018

MDC1 (UniProt Q14676)
inactive: bafetinib -0.1 | [1] -0.269 | nilotinib 0.037 | [2] 0.02 | dasatinib 0.398 | [3] -0.191 | [4] -0.031 | [5] -0.043 | tipifarnib 0.058 | mubritinib -0.038 | [6] 0.115 | [7] -0.075 | [8] -0.054 | [9] 0.153 | entinostat 0.001 | vorinostat -0.164 | citarinostat 0.062 | silmitasertib -0.116 | [10] -0.026 | [11] -0.086

MED15 (UniProt Q96RN5)
inactive: bafetinib 0.026 | [1] 0.092 | nilotinib 0.032 | [2] 0.034 | dasatinib -0.071 | [3] -0.076 | [4] 0.002 | [5] 0.054 | tipifarnib 0.048 | mubritinib 0.081 | [6] 0.046 | [7] -0.089 | [8] -0.013 | [9] -0.055 | entinostat -0.009 | vorinostat 0.012 | citarinostat 0.011 | silmitasertib 0.009 | [10] -0.017 | [11] -0.073

MBD3 (UniProt O95983)
inactive: bafetinib -0.025 | [1] -0.019 | nilotinib -0.059 | [2] -0.019 | dasatinib 0.015 | [3] -0.011 | [4] -0.083 | [5] 0 | tipifarnib 0.027 | mubritinib -0.002 | [6] 0.096 | [7] 0.006 | [8] -0.052 | [9] -0.016 | entinostat 0.016 | vorinostat -0.039 | citarinostat 0.075 | silmitasertib 0.088 | [10] 0.036 | [11] -0.07

MAZ isoform 2 (UniProt P56270)
inactive: bafetinib 0.109 | [1] 0.016 | nilotinib 0.02 | [2] 0.072 | dasatinib 0.07 | [3] -0.017 | [4] -0.247 | [5] -0.115 | tipifarnib 0.154 | mubritinib -0.107 | [6] 0.097 | [7] 0.177 | [8] 0.106 | [9] -0.001 | entinostat 0.003 | vorinostat -0.023 | citarinostat -0.043 | silmitasertib 0.013 | [10] 0.076 | [11] -0.112

MBOAT2 (UniProt Q6ZWT7)
inactive: bafetinib -0.059 | [1] 0.005 | nilotinib -0.037 | [2] 0.003 | dasatinib 0.032 | [3] 0.046 | [4] -0.005 | [5] 0.035 | tipifarnib 0 | mubritinib 0.019 | [6] 0.059 | [7] -0.076 | [8] -0.005 | [9] 0.02 | entinostat -0.007 | vorinostat 0.038 | citarinostat 0.079 | silmitasertib 0.064 | [10] 0.097 | [11] -0.04

MED20 (UniProt Q9H944)
inactive: bafetinib -0.042 | [1] 0.064 | nilotinib -0.025 | [2] -0.003 | dasatinib 0.074 | [3] -0.055 | [4] 0.038 | [5] -0.008 | tipifarnib -0.051 | mubritinib 0.023 | [6] -0.045 | [7] -0.053 | [8] -0.062 | [9] 0.015 | entinostat 0.006 | vorinostat 0.077 | citarinostat 0.019 | silmitasertib 0.01 | [10] -0.054 | [11] -0.073

MFAP1 (UniProt P55081)
inactive: bafetinib -0.066 | [1] -0.037 | nilotinib 0.075 | [2] -0.075 | dasatinib 0.054 | [3] -0.014 | [4] 0.031 | [5] 0.007 | tipifarnib 0.014 | mubritinib -0.021 | [6] -0.021 | [7] 0.014 | [8] 0.04 | [9] 0.13 | entinostat -0.077 | vorinostat -0.03 | citarinostat -0.026 | silmitasertib -0.007 | [10] -0.069 | [11] -0.028
